# Reference: PubChem BioAssay AID1259354 (Paczesny and Yang Labs, IUPUI and University of Michigan, 2018)
# Chains of the proteins cited; added tags and fusions are not shown. Lines headed by an entry give the natural chain unless they say otherwise; changes in a name come on top.
# UniProt Q01638: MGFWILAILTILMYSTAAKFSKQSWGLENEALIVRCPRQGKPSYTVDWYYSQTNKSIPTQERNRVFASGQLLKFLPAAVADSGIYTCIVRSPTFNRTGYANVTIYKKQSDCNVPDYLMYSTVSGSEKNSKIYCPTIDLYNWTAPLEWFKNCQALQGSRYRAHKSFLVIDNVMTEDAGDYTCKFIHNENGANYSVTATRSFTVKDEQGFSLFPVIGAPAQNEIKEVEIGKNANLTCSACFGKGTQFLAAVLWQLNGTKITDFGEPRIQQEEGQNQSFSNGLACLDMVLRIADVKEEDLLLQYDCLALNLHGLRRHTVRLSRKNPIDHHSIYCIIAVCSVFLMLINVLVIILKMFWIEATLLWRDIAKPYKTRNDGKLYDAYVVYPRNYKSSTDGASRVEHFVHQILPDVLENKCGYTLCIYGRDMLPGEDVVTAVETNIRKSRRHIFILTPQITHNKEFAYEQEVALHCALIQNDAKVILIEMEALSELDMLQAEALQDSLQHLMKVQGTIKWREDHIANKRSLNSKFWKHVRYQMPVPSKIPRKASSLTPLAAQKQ
# About 1,800 (2.3%) of roughly 78,000 compounds were called active. Inconclusive means that the source gave no clear call. Such entries were picked first, then a sample of the others. No stated cut-off is given here; in the data, active means inhibition above about 30%; inconclusive means mostly about 10% to 28%; inactive means weaker than that.
# Target: Interleukin-1 receptor-like 1 (Homo sapiens) (UniProt Q01638)
# Test: blocks human ST2 binding to IL-33, primary screen, biochemical, AlphaLISA (AID 1259354)
# Details: AlphaLISA ST2-Fc/biotin-IL-33 interaction, 1 h; at 17 µM, active compounds read high
row,SMILES,inhibition
1,CC1CC(=O)C2=C(C1)OC(N)=C(C#N)C2c1ccoc1 (stereo not given),inactive
2,CC(=O)Nc1ccc(S(=O)(=O)NCc2ccccc2)cc1,inactive
3,COc1ccc(OC)c2c(N3CCCCC3)cc(C(F)(F)F)nc12,inconclusive: 23%
4,C=CCN(Cc1ccccc1OC)C(=O)c1c(C)nn(C)c1C,inactive
5,O=c1c2c(nc(SCc3ccc([N+](=O)[O-])cc3)n1-c1ccccc1)CCS2,inconclusive: 24%
6,Nc1nnc(CCNc2nccc(CCC(F)(F)F)n2)s1,inconclusive: 19%
7,CCOC(=O)C1(CCOc2ccccc2)CCCN(Cc2cc(OC)c(O)c(OC)c2)C1 (stereo not given),inconclusive: 15%
8,COc1c[nH]c(C(=O)N2CCC3(CC2)C(=O)N(C)c2ccccc23)cc1=O,inconclusive: 16%
9,O=C1O[C@@H]2[C@H]3[C@@H]([C@H]1C[C@H]2O)N(c1ccccc1)C(=S)N3Cc1ccc(F)cc1,inconclusive: 17%
10,CC(C)C[C@@H](N)C(=O)NCc1cn2ccccc2n1,inconclusive: 12%
11,COc1cc(-c2nnc(NC(=O)c3ccc(S(=O)(=O)N(C)C)cc3)o2)cc(OC)c1OC,inconclusive: 10%
12,COCC1(NC(=O)C2CCCCn3nnnc32)CCCC1 (stereo not given),inactive
13,COc1ccc(/C=C2\C=C(c3ccc(Cl)cc3)OC2=O)cc1[N+](=O)[O-],inconclusive: 13%
14,Cc1nc2c(c(NCCc3ccccc3C(F)(F)F)n1)CNC2,inconclusive: 13%
15,Cc1ccc(/C=C2/SC(=Nc3ccccc3)NC2=O)c(C)c1,active: 35%
16,Cc1ccncc1-c1cc2ccccc2o1,inactive
17,Cc1ccccc1C(=O)Nc1ccc(C)c([N+](=O)[O-])c1,inconclusive: 25%
18,COC(=O)c1ccc(NC(=O)N2CCCC(Nc3ccc(OC)c(OC)c3)C2)cc1 (stereo not given),inconclusive: 10%
19,Cc1nc(-c2cccnc2)ncc1C(=O)N1CCOC(C(F)(F)F)C1 (stereo not given),inactive
20,COc1ccccc1-c1cc(C(=O)NC(C)c2cnn(-c3ccccn3)c2C)[nH]n1 (stereo not given),inconclusive: 19%

# 12 of these compounds in a different format:
row | SMILES | inhibition
7 | CCOC(=O)C1(CCOc2ccccc2)CCCN(Cc2cc(OC)c(O)c(OC)c2)C1 (stereo not given) | inconclusive: 15%
8 | COc1c[nH]c(C(=O)N2CCC3(CC2)C(=O)N(C)c2ccccc23)cc1=O | inconclusive: 16%
9 | O=C1O[C@@H]2[C@H]3[C@@H]([C@H]1C[C@H]2O)N(c1ccccc1)C(=S)N3Cc1ccc(F)cc1 | inconclusive: 17%
10 | CC(C)C[C@@H](N)C(=O)NCc1cn2ccccc2n1 | inconclusive: 12%
11 | COc1cc(-c2nnc(NC(=O)c3ccc(S(=O)(=O)N(C)C)cc3)o2)cc(OC)c1OC | inconclusive: 10%
12 | COCC1(NC(=O)C2CCCCn3nnnc32)CCCC1 (stereo not given) | inactive
13 | COc1ccc(/C=C2\C=C(c3ccc(Cl)cc3)OC2=O)cc1[N+](=O)[O-] | inconclusive: 13%
14 | Cc1nc2c(c(NCCc3ccccc3C(F)(F)F)n1)CNC2 | inconclusive: 13%
15 | Cc1ccc(/C=C2/SC(=Nc3ccccc3)NC2=O)c(C)c1 | active: 35%
16 | Cc1ccncc1-c1cc2ccccc2o1 | inactive
17 | Cc1ccccc1C(=O)Nc1ccc(C)c([N+](=O)[O-])c1 | inconclusive: 25%
18 | COC(=O)c1ccc(NC(=O)N2CCCC(Nc3ccc(OC)c(OC)c3)C2)cc1 (stereo not given) | inconclusive: 10%

# Remaining list, next part.

row,SMILES,inhibition
1,c1ccc2c(Cc3nnc([C@H]4CCN(Cc5ccncc5)C4)o3)c[nH]c2c1,inconclusive: 10%
2,CC(=O)Nc1ccc(C2C(C#N)=C(N)OC3=C2C(=O)CC(c2ccccc2)C3)cc1 (stereo not given),inconclusive: 12%
3,O=C1NCN(c2ccccc2)C12CCN(CCCC(c1ccc(F)cc1)c1ccc(F)cc1)CC2,inconclusive: 18%
4,CCOC(=O)N1CCN(CCC(=O)Nc2cc(OC)cc(OC)c2)CC1,inconclusive: 10%
5,Cc1ccc(N2CCC(Cc3nn(C)c(=O)n3-c3ccccc3)CC2)nn1,inconclusive: 16%
6,O=C(CCN1C(=O)c2ccccc2C1=O)Nc1ccc(Cl)cc1,inconclusive: 13%
7,CCCc1ccc(C(C)NC(=O)CN2CCN(c3cn[nH]c(=O)c3)CC2)cc1 (stereo not given),inactive
8,Cc1ccc(Cl)cc1NC(=O)c1ccccc1C(=O)Nc1cc(Cl)ccc1C,inactive
9,O=C(NCCC1=CCCCC1)c1cc(-c2ccncc2)nc2ccccc12,inconclusive: 15%
10,COc1ccc(CCNC(=O)N(C)C(C)c2nc(C)sc2C)cc1 (stereo not given),inactive
11,Cc1nnsc1CN(C)C(=O)C1CC(=O)N(c2cccc(O)c2)C1 (stereo not given),inconclusive: 10%
12,COc1ccc(NS(=O)(=O)c2cccc3nonc23)cc1,inconclusive: 14%
13,CCCn1c(N2CCCCC2)nc2c1c(=O)[nH]c(=O)n2C,inconclusive: 15%
14,O=C(NCc1c(F)cc(F)cc1F)c1ccc2c(c1)N(Cc1ccc(F)cc1)C(=O)CS2,inconclusive: 13%
15,CN(C)c1ccc(-c2nnnn2[C@H]2CO[C@H]3[C@@H]2OC[C@@H]3NC(=O)Nc2cccc(C#N)c2)cc1,inconclusive: 15%
16,Cc1ccc(-c2nccn2CCCO)c(Cl)c1Cl,inconclusive: 14%
17,Cn1c(=O)c2c([nH]c(=O)n2Cc2ccccc2Cl)n(C)c1=O,inconclusive: 20%
18,CCOC(=O)C1(Cc2ccccc2)CCN(Cc2ccc(C#CC(C)(C)O)s2)CC1,inconclusive: 25%
19,COc1cc(NCC(O)CN2CCCCCC2)ncn1 (stereo not given),inconclusive: 11%
20,CC[C@H]1CN(C(=O)Nc2ccccc2)CC[C@H]1CC(=O)Nc1nccs1,inconclusive: 14%

row,SMILES,inhibition
1,COc1ccc(C2C(C(=O)Nc3ccccc3OC)=C(C)Nc3nc4ccccc4n32)cc1 (stereo not given),inactive
2,Nc1ccc(-c2c3ccccc3nc3cc(N)ccc23)cc1,active: 61%
3,CCc1ccc(NC(=O)NCCc2nc3cccnc3n2Cc2ccc(C)cc2)cc1,inconclusive: 12%
4,C=CCn1cc(-c2nc3c([nH]2)c(-c2cccnc2)nn3C)c(C)n1,inactive
5,Cc1noc(C)c1CN(C)Cc1nc[nH]c1C,inactive
6,CC(C)C(NC(=O)COc1cccnc1)c1nnc2n1CCNCC2 (stereo not given),inactive
7,CCC(C)c1ccccc1OCCCCN1CCCC1 (stereo not given),inactive
8,Cc1nn(C)c(C)c1-c1cc(C(=O)N2C[C@H]3CC=CC[C@H]3C2)n(C)n1,inconclusive: 12%
9,COc1ccc(C(=O)Nc2cccc(C)c2C)cc1Br,inactive
10,CN1CCN(S(=O)(=O)c2cc([N+](=O)[O-])ccc2N2CCCCCC2)CC1,inconclusive: 17%
11,CCN1C(=O)c2cccc3c(S(=O)(=O)N4CCc5ccccc5C4)ccc1c23,inconclusive: 16%
12,O=C(Nc1cccc(Cl)c1Cl)c1ccco1,inconclusive: 19%
13,CCNc1nc(NC(C)C)nc(SCCOc2ccccc2)n1,inconclusive: 10%
14,COc1ccc(NS(=O)(=O)c2ccc3[nH]c(=O)c(=O)[nH]c3c2)c(OC)c1,inactive
15,CC(=O)c1ccc(NC(=O)O[C@@H]2CO[C@H]3[C@@H]2OC[C@@H]3NC(=O)Nc2ccc(Oc3ccccc3)cc2)cc1,inconclusive: 24%
16,COc1ccc2oc(=Nc3cccc(F)c3)c(C(=O)NC(C)=O)cc2c1,inconclusive: 24%
17,COc1ccc2nc(-c3ccco3)c(-c3ccco3)nc2c1,inconclusive: 11%
18,COc1ccnc(CN2CCC=C(C(C)NC(C)=O)C2)c1OC (stereo not given),inactive
19,Cc1ccc(C(=O)Nc2ccc3oc(-c4ccncc4)nc3c2)cc1C,inactive
20,c1ccc2c(CCNc3ncnc4nc[nH]c34)c[nH]c2c1,inconclusive: 17%
